Laboratory results taken from publication PMC9404778.

What was measured:
[1] = target: T1, His6-DasR (Streptomyces roseosporus NRRL11379) (UniProt A0A919BEL1); assay: DNase I footprinting; settings: recombinant protein; protein details: His6 (pET-28a); label: 5' FAM; probe letters rebuilt from the primers and the genome
[2] = target: T1, His6-DasR (Streptomyces roseosporus NRRL11379); assay: EMSA; settings: EMSA: 20 uL, 1 ug poly[d(I-C)], 0.15 nM DIG-labeled probe, Roche DIG gel shift kit 2nd gen, pH and temperature not stated, recombinant protein, protein details: His6 (pET-28a), probe letters rebuilt from the primers and the genome
[3] = target: T1, His6-DasR (Streptomyces roseosporus NRRL11379); assay: competition with a labelled probe; settings: 4.5 uM DasR, EMSA: 20 uL, 1 ug poly[d(I-C)], 0.15 nM DIG-labeled probe, Roche DIG gel shift kit 2nd gen, pH and temperature not stated, recombinant protein, protein details: His6 (pET-28a), probe letters rebuilt from the primers and the genome
[4] = 1 and 4.5 uM DasR, label: 3' DIG

ACCCGCCTTCCCTGACCCGGACACGCCATGAGGCCGCGGCCGCGAGGGAGCGCACCGGCGCGGTTGTCAGAGAGCGGTTGTGCGCCCGGCGTGACCGGATACAGCACACACAACCGATGGTTTTCAGCCAACTTCACCCGGGGGGTGACCCCTTCGCGGGATGGCCGGACAACCCACCGCCCACCAGGCAGGAACGGACCGCGCGGTACGCTTTCACCCGACGCGGACGGGCCACGTTGGCGAAGGGCACTTCCCTGTGCGCTTCGCAGGTGAAACGCTTCGTGATCGAACGCTTCACGCCACGTTTCCTTATCGACATTGAGCTGGTAGGGGAAGGTGTCACGGCGAGACCACGCGACGCAGTAGATTCGATCTTGAAAATCGGGGGCTGGGGAACCGTGCGAAACCGAGGGGAAACGTGCAGGAGCGGCAGGCCCGTAAGGACCGGAAAGACGCGAACACCGAGGGGGGCTTAGCGTCATGAGCCAGG (double strand) [adpAp footprinting fragment]
binding result [1]: binds

AGGCGCTGCGGATCGATGCGGGGTTCCGCGCTGAGCCTCAACGCGGCGGGCCAGAGCCTCGGCGTCTTCGCCGGCGCCGCCCTCGGCGGAGCGGGACTCGGGCTCGCGGGGTACCCGGGGATCGCCGCCGCGTTCGGGCTGCTCGTCGCCGTGGCCGTGGTGGCCGGGCTCCTGGTGCTGCGCTCCGAGGACGAGATCCCCGGTTCGGCGTAGCCGAAGCCGACGGGGCGCCCGCCCAAGGTCGCGGGCACCCCACGGACGCACATCCACCGTTCATCAACGCTCCGAAACCGGAAGGCCGATCCACATGTCACCGCCCGCGCCACCCGAGGCGCTGCAACGTCCCGCGCCCACCGCGCAAGAGCCGGTTCGGACCG (double strand) [dptP-M EMSA probe]
binding result [2, 4]: no binding

ATGGCCGGACAACCCACCGCCCACCAGGCAGGAACGGACCGCGCGGTACGCTTTCACCCGACGCGGACGGGCCACGTTGGCGAAGGGCACTTCCCTGTGCGCTTCGCAGGTGAAACGCTTCGTGATCGAACGCTTCACGCCACGTTTCCTTATCGACATTGAGCTGGTAGGGGAAGGTGTCACGGCGAGACCACGCGACGCAGTAGATTCGATCTTGAAAATCGGGGGCTGGGGAACCGTGCGAAACCGAGGGGAAACGTGCAGGAGCGGCAGGCCCGTAAGGACCGGAAAGACGCGAACACCGAGGGGGGCTTAGCGTCATGAGCCAG (double strand) [adpAp EMSA probe]
binding result ([2]; 1-4.5 uM DasR, label: 3' DIG): binds

CGCACCGGACGCCCTGACCCCTCCCCACCACCTGCCCAGTGTGACGTTTGCGCAGATGAGAACGTGCGTAAACGCCGCATACGCAAAGATCGTCCCTGCCGGGACCCATTGACGTTCGCAGGGGCGTGGAACATACTGGCGATCAAGTCGCACAGGAACCAACAGGCACACCAACCACAGGCGTTACAGGGGGGGTTGGTGTTTCGTCCATATCAAGTGGTTTGGTCCGCCGAAGCGGTTGGACCTCACATGACGGCAACAGGGCATTCGCACATGCCTGATGACGGGACGGCACACCTCACGCAGCGGCGACCGGTCGCAAGCCGGACGCGGAATGACTCCCTGCCTTACAGGTATGCGAGCGCGGATGCGTCGTTCGACCGGAGTCAGGAGGGGGAGTGCCTGCCGTGAGTGAGAGCCGCTGTGCC (double strand) [dptEp footprinting fragment]
binding result [1]: binds

CGTGCAGGAAGGTGTTCGCACACTTCAGCCCCTGGCCGATTTTCGGTCAACGGTAGCGAAATGAATCGATCAGGATCGATAGGAAAGCAAAGCTCAACGAGCTCCGGAGAGGCCCCGCTCCCGATCCGAGAGCCCTCCCGCTAGCTCGCATTCCCGGCAAAGCGGGTAGCGCCTTCCTGGATCGGGGGCGCCTGCGATAGAACAGACGACATCCACGAGAAGTCGAAGAGAAGTCGAACGACACAGTTCGATCAGAAGGAAAAGGAGAGGCCGGGATGGCACTCGCATCGGAACGG (double strand) [dptR2p EMSA probe]
binding result [2, 4]: no binding

GAAGAGGCGGAGGATGCGGCGCACCTCGGCGGGCCGCCGGTCGGCGGCGGGGCGGGCATCGGGCGGGGGCGTCCACGTGGGTTCGTCGGGTTTCATGGGCTCCTTCGTCGGGCGTGAGGCGGGGCCGGGCAGTCCCGGTCCCGCACAGTGAGAGCCTAGCTCATTGTTACCTATGCTCACAATGAACAAGGTCCTGATATTGTTCCCGTATGGACGCCCCGGATTCCCCCGACTCCCCTGATTCCCCCGAGTCCCGGGACTCTCGCGATTCCCGGGA (double strand) [dptR3p EMSA probe]
binding result [2, 4]: no binding

GCGCGGTCAACAAGATTCTTCGCGATTTCTTCCGAACGAGCTGAAAGGCACGACGACCTTGTCCAGTACCGGCAGAGAGGGGCCCGTCGTGACCGGCGAAACCCGCACCACCACCTACCTCCCCGGCATGACCGTGCACGACTACCACGTGACCGTCAAGG (double strand) [dptIp EMSA probe]
binding result [2, 4]: no binding

GGCGTGGAACATACTGGCGATCAAGTCGCACAGGAACCAACAGGCACACCAACCACAGGCGTTACAGGGGGGGTTGGTGTTTCGTCCATATCAAGTGGTTTGGTCCGCCGAAGCGGTTGGACCTCACATGACGGCAACAGGGCATTCGCACATGCCTGATGACGGGACGGCACACCTCACGCAGCGGCGACCGGTCGCAAGCCGGACGCGGAATGACTCCCTGCCTTACAGGTATGCGAGCGCGGATGCGTCGTTCGACCGGAGTCAGGAGGGGGAGTGCCTGCCGTGAGTGAGAGCCGCTGTGC (double strand) [dptEp EMSA probe]
binding result ([2]; 1-4.5 uM DasR, label: 3' DIG): binds | binding result ([3]; ~100-fold unlabeled dptEp abolished shift, label: 3' DIG): binds

GTCCATCTCTCGCGGATCCCCTCAGGTGCGGTCGGCCAACTGGGGCATCAGTGCCTGGACGAACTCGTTGAGTGTGGGGACGCTCCACAGCAGCTCCGGGTCGACCTCGATCCCGTAGCGGTCCTCGACCTGCGCGCAGAGGGCAACTCCGGAGACGGAGTCGAGGCCATGGTCGGTCAGGGGTGCGTCACCGGCGATCCGGTCGGGTGTCTCGTTCACGAACTCGGCGATCTGTCCGGTGATCCACGCGGTGACCTCG (double strand) [dptAp EMSA probe]
binding result [2, 4]: no binding

TTGATGACCTCGACCATGTGCACCGGGATACGGATGGTGCGGGCCTGGTCGGCCATCGCGCGGGTGATCGCCTGACGGATCCACCAGGTGGCGTACGTGGAGAACTTGTAGCCCTTGG (double strand) [hrdB probe]
binding result ([2]; 4.5 uM DasR, label: 3' DIG (unlabeled as competitor)): no binding | binding result ([3]; ~100-fold unlabeled hrdB vs dptEp probe, label: 3' DIG (unlabeled as competitor)): no binding

Construct, isoform or probe ends are uncertain for at least one entry. For part of these data: No signal at the amounts used counts as a negative.
